Measured values from paper PMC4367244.
No constants are given. Whether binding was seen depends on the method and setting. In cells and extracts the contact can be indirect.

B1: EphA5 kinase domain (residues 655–956) (domain or fragment, UniProt P54756 655-956)
chain: TYEDPNQAVHEFAKEIEASCITIERVIGAGEFGEVCSGRLKLPGKRELPVAIKTLKVGYTEKQRRDFLGEASIMGQFDHPNIIHLEGVVTKSKPVMIVTEYMENGSLDTFLKKNDGQFTVIQLVGMLRGISAGMKYLSDMGYVHRDLAARNILINSNLVCKVSDFGLSRVLEDDPEAAYTTRGGKIPIRWTAPEAIAFRKFTSASDVWSYGIVMWEVVSYGERPYWEMTNQDVIKAVEEGYRLPSPMDCPAALYQLMLDCWQKERNSRPKFDEIVNMLDKLIRNPSSLKTLVNASCRVSNLL
B2: EphA5 complete cytoplasmic domain (residues 595–1,037) (domain or fragment, UniProt P54756 595-1037)
chain: SGSCCECGCGRASSLCAVAHPSLIWRCGYSKAKQDPEEEKMHFHNGHIKLPGVRTYIDPHTYEDPNQAVHEFAKEIEASCITIERVIGAGEFGEVCSGRLKLPGKRELPVAIKTLKVGYTEKQRRDFLGEASIMGQFDHPNIIHLEGVVTKSKPVMIVTEYMENGSLDTFLKKNDGQFTVIQLVGMLRGISAGMKYLSDMGYVHRDLAARNILINSNLVCKVSDFGLSRVLEDDPEAAYTTRGGKIPIRWTAPEAIAFRKFTSASDVWSYGIVMWEVVSYGERPYWEMTNQDVIKAVEEGYRLPSPMDCPAALYQLMLDCWQKERNSRPKFDEIVNMLDKLIRNPSSLKTLVNASCRVSNLLAEHSPLGSGAYRSVGEWLEAIKMGRYTEIFMENGYSSMDAVAQVTLEDLRRLGVTLVGHQKKIMNSLQEMKVQLVNGMVPL

Target: nonphosphorylated ATM (ataxia-telangiectasia mutated) (human (endogenous in human lung cancer cells))
Experiment: pull-down; solution binding assay: EphA5 constructs incubated with anti-pATM, anti-ATM or control IgG-coupled magnetic beads in 500 ul binding buffer (20 mM HEPES pH 6.8, 150 mM KOAc, 2 mM Mg(OAc)2, 2 mM DTT, 0.1% Tween 20) overnight at 4 °C; bound and unbound fractions immunoblotted; only the binder purified

Row | Binder | binding
1 | B1 | no binding
2 | B2 | no binding
